# Test results: publication PMC5996148
# Some of the results follow.
# Assays:
# Experiment in all cases: protein microarray (ProtoArray v5.0), streptavidin-Alexa Fluor 647
# Settings in all cases: 3'-biotin; 20 mM Tris (pH 7.5), 5 mM MgCl2, 100 mM KCl, 0.1% Tween-20, A/T-rich and random oligonucleotide blockers; temperature not stated; high values mean tight binding
# [1] = system: Serine/threonine-protein kinase VRK3 (human)
# [2] = system: Serine/threonine-protein phosphatase 2A 56 kDa regulatory subunit gamma isoform (human)
# [3] = system: Serine/threonine-protein phosphatase 2A 65 kDa regulatory subunit A beta isoform (human)
# [4] = system: Serologically defined colon cancer antigen 3 (human)
# [5] = system: Serum albumin (human)
# [6] = system: Serum amyloid A protein (human)
# [7] = system: Signal transducer and activator of transcription 4 (human)
# [8] = system: Signal transducer and activator of transcription 6 (human)
# [9] = system: Smith-Magenis syndrome chromosome region candidate gene 7 protein (human)
# [10] = system: Sodium channel and clathrin linker 1 (human)
# [11] = system: Sodium channel subunit beta-1 (human)
# [12] = system: Sodium/glucose cotransporter 2 (human)
# [13] = system: Solute carrier family 22 member 12 (human)
# [14] = system: Solute carrier family 35 member E2 (human)
# [15] = system: Solute carrier family 35 member F2 (human)
# [16] = system: Sperm protein associated with the nucleus on the X chromosome N4 (human)
# [17] = system: Spermatid nuclear transition protein 4 (human)
# [18] = system: Spermatogenesis- and oogenesis-specific basic helix-loop-helix-containing protein 2 (human)
# [19] = system: Spermatogenesis-associated protein 7 (human)
# [20] = system: Spermine synthase (human)
sequence,measurement,setting,value
GGTGACAGGGGTATGGGGAGGGG [G4-2 biotinylated (Ct1)],binding signal,[1],5.13 z-score
same,binding signal,[2],-0.383 z-score
same,binding signal,[3],-0.396 z-score
same,binding signal,[4],-0.38 z-score
same,binding signal,[5],-0.399 z-score
same,binding signal,[6],-0.358 z-score
same,binding signal,[7],-0.376 z-score
same,binding signal,[8],-0.369 z-score
same,binding signal,[9],-0.392 z-score
same,binding signal,[10],-0.394 z-score
same,binding signal,[11],-0.383 z-score
same,binding signal,[12],-0.386 z-score
same,binding signal,[13],-0.388 z-score
same,binding signal,[14],-0.382 z-score
same,binding signal,[15],-0.376 z-score
same,binding signal,[16],5.47 z-score
same,binding signal,[17],4.07 z-score
same,binding signal,[18],-0.384 z-score
same,binding signal,[19],-0.399 z-score
same,binding signal,[20],-0.386 z-score

# Reprinted at random: 2 entries already listed.
sequence,measurement,setting,value
GGTGACAGGGGTATGGGGAGGGG [G4-2 biotinylated (Ct1)],binding signal,[20],-0.386 z-score
same,binding signal,[13],-0.388 z-score
